We go through 30 molecules from the supplement of paper PMC8866396.

In one assay the test system is IL-6-GFP PC-9GR. The experiment in a line: IL-6-GFP fluorescence relative to DMSO control (fraction of control); higher = more IL-6-GFP expression. To be noted: compound concentration: 10 uM; treatment time: 48 h. Here is the method: (§1)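 IL-6-GFP-overexpressing PC-9 and PC-9GR EGFR-mutant lung cancer cells (3000 cells/well, 96-well) were treated for 48 h with each compound of the Selleck L2000 library at 10 uM. IL-6-GFP fluorescence was read on a high-content screening system, and viability by CCK-8 absorbance on a parallel plate set. Each value was normalised as compound well / DMSO control well; two independent replicates.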

Another assay concerns IL-6-GFP PC-9. The assay is described as above. To be noted: compound concentration: 10 uM; treatment time: 48 h. Here is the method:
as §1

± gives the standard deviation of the averaged measurements. The list shows a part of the results. Repeats in this data set agree poorly, so a single value says little.

For the molecule `CCCCC1(COC(=O)CCC(=O)O)C(=O)N(c2ccccc2)N(c2ccccc2)C1=O` [Suxibuzone], the IL-6-GFP fluorescence turned out to be 0.495 ± 0.38 in the assay with IL-6-GFP PC-9GR and 0.922 ± 0.19 in the assay on IL-6-GFP PC-9.

Regarding `O=c1oc2cc(O)ccc2s1` [Tioxolone], the IL-6-GFP fluorescence with IL-6-GFP PC-9GR turned out to be 1.24 ± 0.095; in the assay on IL-6-GFP PC-9, 0.874 ± 0.42.

Turning to `Cc1ccc(C2OC(CO)C(O)C(O)C2O)cc1Cc1ccc(-c2ccc(F)cc2)s1.Cc1ccc(C2OC(CO)C(O)C(O)C2O)cc1Cc1ccc(-c2ccc(F)cc2)s1.O` (stereo not given) [Canagliflozin hemihydrate], the results for the IL-6-GFP fluorescence in the assay on IL-6-GFP PC-9GR and in the assay on IL-6-GFP PC-9 were 0.813 ± 0.14 and 0.835 ± 0.086, respectively.

As for `CN1CCC(=C2c3ccccc3CCn3c(C=O)cnc32)CC1` [Alcaftadine], the figures for the IL-6-GFP fluorescence in the assay on IL-6-GFP PC-9GR and in the assay with IL-6-GFP PC-9 were 0.488 ± 0.42 and 0.894 ± 0.015, respectively.

For the molecule `CN(C)CCC(c1ccc(Br)cc1)c1ccccn1.O=C(O)/C=C\C(=O)O` (stereo not given) [Brompheniramine hydrogen maleate], the values for the IL-6-GFP fluorescence in the assay on IL-6-GFP PC-9GR and in the assay with IL-6-GFP PC-9 were 1.09 ± 0.3 and 0.805 ± 0.21, respectively.

As to `O=C(c1ccc(OCCN2CCCCC2)cc1)c1c(-c2ccc(O)cc2)sc2cc(O)ccc12` [Raloxifene], the IL-6-GFP fluorescence with IL-6-GFP PC-9GR came to 0.937 ± 0.16; with IL-6-GFP PC-9, 0.71 ± 0.14.

Turning to `CN(C)CCCOc1nn(Cc2ccccc2)c2ccccc12.Cl` [Benzydamine HCl], the IL-6-GFP fluorescence with IL-6-GFP PC-9GR stood at 0.657 ± 0.19; in the assay on IL-6-GFP PC-9 it was 0.809 ± 0.076.

Turning to `Nc1ccn(C2OC(CO)C(O)C2(F)F)c(=O)n1` (stereo not given) [Gemcitabine], the IL-6-GFP fluorescence in the assay with IL-6-GFP PC-9GR was 0.775 ± 0.25; in the assay with IL-6-GFP PC-9 it was 1.2 ± 0.11.

Take `Cc1ccc(C2OC(CO)C(O)C(O)C2O)cc1Cc1ccc(-c2ccc(F)cc2)s1` (stereo not given) [Canagliflozin]: the values for the IL-6-GFP fluorescence with IL-6-GFP PC-9GR and in the assay on IL-6-GFP PC-9 were 0.883 ± 0.14 and 0.9 ± 0.25, respectively.

Take `CC(Nc1ncnc2[nH]cnc12)c1cc2cccc(Cl)c2c(=O)n1-c1ccccc1` (stereo not given) [Duvelisib (IPI-145, INK1197)]: the IL-6-GFP fluorescence is 0.943 ± 0.075 with IL-6-GFP PC-9GR and 0.913 ± 0.023 in the assay on IL-6-GFP PC-9.

In the case of `OCC1OC(c2ccc(F)c(Cc3cc4ccccc4s3)c2)C(O)C(O)C1O` (stereo not given) [Ipragliflozin (ASP1941)], the IL-6-GFP fluorescence is 0.946 ± 0.13 with IL-6-GFP PC-9GR and 0.665 ± 0.32 in the assay with IL-6-GFP PC-9.

For `Cc1ccc(S(=O)(=O)O)cc1.NC(=O)c1cccc2cn(-c3ccc(C4CCCNC4)cc3)nc12` (stereo not given) [Niraparib (MK-4827) tosylate], the values for the IL-6-GFP fluorescence with IL-6-GFP PC-9GR and in the assay on IL-6-GFP PC-9 were 0.969 ± 0.011 and 0.911 ± 0.049, respectively.

On to `O=C(O)C1CSCN1` (stereo not given) [Timonacic], for which the results for the IL-6-GFP fluorescence in the assay on IL-6-GFP PC-9GR and in the assay on IL-6-GFP PC-9 were 0.797 ± 0.25 and 0.762 ± 0.049, respectively.

As for `O=C1OC(OC(=O)c2cccnc2Nc2cccc(C(F)(F)F)c2)c2ccccc21` (stereo not given) [Talniflumate], the IL-6-GFP fluorescence in the assay with IL-6-GFP PC-9GR was determined as 0.917 ± 0.039; with IL-6-GFP PC-9, 0.8379 ± 0.003.

As for `CCOc1ccc(NC(C)=O)cc1` [Phenacetin], the IL-6-GFP fluorescence was 1.28 ± 0.24 in the assay on IL-6-GFP PC-9GR and 0.862 ± 0.22 in the assay with IL-6-GFP PC-9.

In the case of `CCN(CC)Cc1cc(Nc2ccnc3cc(Cl)ccc23)ccc1O.Cl.Cl.O.O` [Amodiaquine dihydrochloride dihydrate], the IL-6-GFP fluorescence with IL-6-GFP PC-9GR came to 0.698 ± 0.26; in the assay on IL-6-GFP PC-9 it was 0.908 ± 0.13.

Regarding `S=c1nc[nH]c2nc[nH]c12` [Mercaptopurine (6-MP)], the IL-6-GFP fluorescence in the assay on IL-6-GFP PC-9GR turned out to be 1.1 ± 0.21; in the assay with IL-6-GFP PC-9, 1.14 ± 0.024.

Regarding `CO/N=C(\C(=O)NC1C(=O)N2C(C(=O)OCOC(=O)C(C)(C)C)=C(C)CSC12)c1csc(N)n1.Cl` (stereo not given) [Cefetamet pivoxil hydrochloride], the figures for the IL-6-GFP fluorescence in the assay on IL-6-GFP PC-9GR and with IL-6-GFP PC-9 were 0.729 ± 0.4 and 0.935 ± 0.12, respectively.

Regarding `CC(=O)Nc1ccccc1` [Acetanilide], the IL-6-GFP fluorescence in the assay on IL-6-GFP PC-9GR came to 0.949 ± 0.029; in the assay on IL-6-GFP PC-9, 0.857 ± 0.048.

As for `CNCC(O)C(O)C(O)C(O)CO.Cc1c(Nc2ncccc2C(=O)O)cccc1C(F)(F)F` [Flunixin Meglumin], the IL-6-GFP fluorescence stood at 0.784 ± 0.061 with IL-6-GFP PC-9GR and 0.759 ± 0.05 with IL-6-GFP PC-9.

In the case of `CC12CCC(=O)C=C1CCC1C2C(O)CC2(C)C1CCC2(O)C(=O)CO` (stereo not given) [Hydrocortisone], the results for the IL-6-GFP fluorescence with IL-6-GFP PC-9GR and in the assay on IL-6-GFP PC-9 were 0.739 ± 0.28 and 0.787 ± 0.099, respectively.

Consider `Cc1nc(Nc2ncc(C(=O)Nc3c(C)cccc3Cl)s2)cc(N2CCN(CCO)CC2)n1.O` [Dasatinib Monohydrate], for which the IL-6-GFP fluorescence in the assay with IL-6-GFP PC-9GR worked out at 1.1 ± 0.085; with IL-6-GFP PC-9, 1.18 ± 0.11.

For `Cc1ccc(Nc2c(F)cccc2Cl)c(CC(=O)O)c1` [Lumiracoxib], the IL-6-GFP fluorescence with IL-6-GFP PC-9GR is 0.943 ± 0.14; with IL-6-GFP PC-9, 0.856 ± 0.26.

With `CN(C(=O)c1c(O)c2ccccc2n(C)c1=O)c1ccccc1` [Roquinimex], the figures for the IL-6-GFP fluorescence in the assay with IL-6-GFP PC-9GR and with IL-6-GFP PC-9 were 1.13 ± 0.34 and 0.902 ± 0.045, respectively.

With `CC12CCC3c4ccc(O)cc4CC(CCCCCCCCCS(=O)CCCC(F)(F)C(F)(F)F)C3C1CCC2O` (stereo not given) [Fulvestrant], the IL-6-GFP fluorescence in the assay on IL-6-GFP PC-9GR was found to be 1.07 ± 0.046; with IL-6-GFP PC-9 it was 0.969 ± 0.1.

Regarding `CCCCCCNC(=O)n1cc(F)c(=O)[nH]c1=O` [Carmofur], the IL-6-GFP fluorescence is 1.052 ± 0.002 with IL-6-GFP PC-9GR and 0.741 ± 0.29 in the assay on IL-6-GFP PC-9.

Consider `CC(N)c1ccc(C(=O)Nc2ccnc3[nH]ccc23)cc1.Cl.Cl` (stereo not given), for which the values for the IL-6-GFP fluorescence in the assay with IL-6-GFP PC-9GR and with IL-6-GFP PC-9 were 1.08 ± 0.29 and 0.841 ± 0.26, respectively.

Turning to `Nc1nc(F)nc2c1ncn2C1OC(COP(=O)(O)O)C(O)C1O` (stereo not given) [Fludarabine Phosphate], the IL-6-GFP fluorescence with IL-6-GFP PC-9GR was determined as 1.08 ± 0.099; in the assay on IL-6-GFP PC-9 it was 1.12 ± 0.089.

Take `CCC(C)C(=O)OC1CC(O)C=C2C=CC(C)C(CCC(O)CC(O)CC(=O)O)C21` (stereo not given) [Pravastatin]: the IL-6-GFP fluorescence came to 0.881 ± 0.049 with IL-6-GFP PC-9GR and 0.775 ± 0.049 in the assay with IL-6-GFP PC-9.

Take `CCN1CCN(Cc2ccc(Nc3ncc(F)c(-c4cc(F)c5nc(C)n(C(C)C)c5c4)n3)nc2)CC1` [Abemaciclib]: the IL-6-GFP fluorescence with IL-6-GFP PC-9GR amounted to 1.01 ± 0.18; in the assay with IL-6-GFP PC-9, 0.874 ± 0.064.
